Drawing on patent US20100279930A1, “HUMAN PANCREATIC POLYPEPTIDE (HPP) ANALOGUES AND THEIR EFFECTS ON FEEDING BEHAVIOUR” (priority 2007, published 2010), this text covers binding for four molecules.

By UniProt entry, the sequences of proteins in these tests, tags left out.
UniProt P50391: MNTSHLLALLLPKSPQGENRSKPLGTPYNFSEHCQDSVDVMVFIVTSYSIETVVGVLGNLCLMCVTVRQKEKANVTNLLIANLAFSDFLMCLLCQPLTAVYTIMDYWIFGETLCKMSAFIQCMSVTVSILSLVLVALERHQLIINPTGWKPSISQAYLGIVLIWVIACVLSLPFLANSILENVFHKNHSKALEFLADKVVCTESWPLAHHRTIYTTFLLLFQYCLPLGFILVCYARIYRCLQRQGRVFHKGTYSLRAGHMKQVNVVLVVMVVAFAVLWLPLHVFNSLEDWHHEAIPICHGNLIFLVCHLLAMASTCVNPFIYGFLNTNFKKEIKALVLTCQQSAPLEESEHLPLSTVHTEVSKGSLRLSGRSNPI

No constants are given. Whether binding was seen depends on the method and setting. Some entries that bind do so weakly or less than the wild type.

The target in the experiment is human Y4 receptor (human) (UniProt P50391). The experiment can be described thus: 125I-PP displacement assay, human Y4 receptor membranes.

B1: compound of SEQ ID NO:72 (code 6674) (peptide)
peptide: KPLEPVYPGDNATPEELNRYYASLRRYINMLTRPRY
On to B1, for which the binding result is recorded as “binds”.

B2: compound of SEQ ID NO:73 (code 6675) (peptide)
peptide: B1 peptide
As to B2, the binding entry was “binds”.

B3: compound of SEQ ID NO:11 (code 6435) (peptide)
peptide: KPLEPVYPGDNATPEQMAQYAADLRRYINMLTRPRY
modifications: lauryl-lysine at position 1 (replaces Ala 1)
Take B3: the binding result is “binds”.

B4: compound of SEQ ID NO:1092 (peptide)
peptide: GAPLEPHFPGDNATPEEMAKYAAELRRYINKLTRPRY
For B4, the binding result was “binds”.
